Data reported in paper PMC8226452 (Pharmaceuticals, 2021).

Assay: general procedure: Fmoc solid-phase peptide synthesis; rink amide resin; HBTU/DIPEA
Details: conjugation step; for final HPLC purity: analytical HPLC

Substance: hybrid, chelator, and fluorescent dye-modified PESIN homodimer 5
- conjugation yield: 40% yield
- final HPLC purity: 95% purity

Substance: hybrid, chelator, and fluorescent dye-modified PESIN homotetramer 6
- conjugation yield: 35% yield
- final HPLC purity: 95% purity
